Test results published in PubChem BioAssay AID901 (National Center for Advancing Translational Sciences (NCATS), 2007).
The list shows a part of the results. Further columns of the screen follow, without active or inactive calls. Compounds called inactive in the main read-out are mostly missing here. The note in brackets gives the kind of curve behind each potency; many fits are weak.

Test: qHTS Assay for Identifying the Cell-Membrane Permeable IMPase Inhibitors
Conditions: CHO-M1 cells, IP1 accumulation, HTRF TR-FRET ratio; measured here: donor channel 620 nm AC50

Row | SMILES | AC50
1 | Cc1cccc2cc(C(c3nnnn3C3CCCC3)N3CCOCC3)c(=O)[nH]c12 (configuration not stated) | 0.02 µM [rising, full curve, poor fit]
2 | Cc1sc2ncnc(Sc3ccccc3C(=O)Nc3ccccc3Cl)c2c1C | 6.31 µM [rising, single point]
3 | Cc1cccc(Nc2nn3c(=O)c4ccccc4nc3s2)c1 | 31.6 µM [rising, single point]
4 | O=C(c1ccc(CNS(=O)(=O)c2cccc(C(F)(F)F)c2)cc1)N1CCOCC1 | 3.16 µM [falling, partial curve, poor fit]
5 | O=C(CSc1nc2[nH]ncc2c(=O)[nH]1)N1CCCCC1 | 1.12 µM [rising, full curve, poor fit]
6 | Cc1nn(C/C(C#N)=N\O)c(C)[n+]1N | 0.631 µM [falling, full curve, poor fit]
7 | CSC(=Nc1ccccc1)C1=C(O)COC1=O | 0.0126 µM [rising, full curve, poor fit]
8 | S=c1nc[nH]c2c1[nH]c1ccccc12 | 12.6 µM [rising, partial curve]
9 | CCOC(=O)c1cnc(SCC(=O)Nc2cc(C(F)(F)F)ccc2N2CCOCC2)nc1N | 25.1 µM [rising, single point]
10 | CCN(CC)c1ccc(/C=N/Nc2nc(C)cc(=O)[nH]2)cc1 | 12.6 µM [falling, partial curve, poor fit]
11 | CCOC(=O)c1sc(NC(=O)CSc2nc3c(cc2C#N)CCCCC3)c(C#N)c1C | 15.8 µM [rising, single point]
12 | O=C(Nc1ccc2nsnc2c1)c1cccs1 | 25.1 µM [falling, single point]
13 | c1ccc(-c2cnn3c(-c4ccccc4)c(-c4ccccc4)nc3n2)cc1 | 35.5 µM [rising, single point]
14 | N#Cc1c(C(F)(F)F)cc(-c2cccs2)nc1SCC(=O)Nc1ccc(F)cc1 | 31.6 µM [rising, partial curve]
15 | Cc1ccc2c(c1C)NC(=O)C2(O)CC(=O)c1ccc2c(c1)OCO2 (configuration not stated) | 12.6 µM [falling, partial curve, poor fit]
16 | COC(=O)c1ccccc1NC(=O)CN1CCN(C(=O)c2ccco2)CC1 | 0.1 µM [falling, full curve, poor fit]
17 | O=C(CCNS(=O)(=O)c1ccc(Br)s1)Nc1ccc(Cl)cc1 | 5.01 µM [falling, single point]
18 | Cc1nc(-c2ccc(S(=O)(=O)N3CCCCCC3)cc2)cs1 | 0.0158 µM [rising, full curve, poor fit]
19 | CC(C)C(=O)Nc1ccc2c3c(cccc13)CC2 | 1.26 µM [falling, full curve, poor fit]
20 | O=c1cc(N2CCc3ccccc32)[nH]c(=O)n1-c1ccccc1 | 0.891 µM [falling, partial curve]
21 | Cc1ccc(Oc2cc(C#N)c(C#N)cc2-n2nnc3ccccc32)cc1C | 0.398 µM [falling, full curve, poor fit]
22 | Cc1cc2c(C)ccc(C)c2nc1SCC(=O)c1cccs1 | 0.0126 µM [falling, full curve, poor fit]
23 | COc1ccc(Cc2nnc(NC(=O)CSc3ccccc3)s2)cc1 | 0.00398 µM [falling, full curve, poor fit]

Row | SMILES | AC50
24 | CSc1ccccc1C(=O)Nc1ccc2c(c1)OCCO2 | 3.98 µM [rising, single point]
25 | C=CCC(NCCCO)c1cccc(OC)c1OC (configuration not stated) | 0.02 µM [falling, full curve, poor fit]
26 | CCNc1nc(OCC)nc(N2CCC(Cc3ccccc3)CC2)n1 | 35.5 µM [rising, partial curve, poor fit]
27 | COc1ccc(-c2cc(C(F)(F)F)n3nc(-c4ccc(Cl)cc4)cc3n2)cc1OC | 0.251 µM [falling, partial curve, poor fit]
28 | O=c1oc2cc(O)ccc2c2ccccc12 | 12.6 µM [rising, partial curve]
29 | O=C(OCc1cc2ccccc2[nH]c1=O)c1cccnc1 | 0.0126 µM [rising, full curve, poor fit]
30 | Cc1oc(CSCC2CCCO2)cc1C(=O)O (configuration not stated) | 3.98 µM [falling, partial curve]
31 | Cc1ccc(CSc2ccc(-c3cccs3)nn2)cc1 | 35.5 µM [rising, single point]
32 | COCCCN1C(=O)c2ccccc2C1C(=O)NC1CCCCCC1 (configuration not stated) | 0.0126 µM [rising, full curve, poor fit]
33 | Brc1cccc(-c2nnc3n2CCC3)c1 | 3.16 µM [rising, single point]
34 | COc1ccc(-c2noc(COc3cc(C)c(Br)c(C)c3)n2)cc1OC | 1.41 µM [falling, full curve, poor fit]
35 | COc1ccccc1/C=C/C=N/NC(=O)c1ccc(=O)n(C)c1 | 3.16 µM [falling, partial curve, poor fit]
36 | COc1ccc(NC(=O)CCN2CCN(CCO)CC2)c(OC)c1 | 0.00501 µM [falling, full curve, poor fit]
37 | CCSc1ccccc1C(=O)Nc1cccnc1 | 0.0316 µM [falling, full curve, poor fit]
38 | Nc1cc2sc(-c3ccc(C(=O)O)cc3)nc2cc1Cl | 14.1 µM [rising, partial curve]
39 | COc1ccc(N(CC(=O)NC2CCCCCC2)S(=O)(=O)c2c(C)nn(C)c2C)cc1 | 0.0631 µM [rising, full curve, poor fit]
40 | O=C(Nc1ccc(Cl)cc1)OCc1ccccn1 | 31.6 µM [falling, single point]
41 | COc1ccc(Cl)cc1NC(=O)C(C)Sc1nncn1C (configuration not stated) | 0.0501 µM [rising, full curve]
42 | COC(=O)C1C(O)=C(C=NC2CCCCC2)C(=O)CC1(C)C (configuration not stated) | 31.6 µM [falling, single point]
43 | CCCCN1C(=O)C2C(C(=O)Nc3cccc(OC)c3)C3C=CC2(O3)C1C(=O)NC1CCCCC1C (configuration not stated) | 0.158 µM [falling, single point]
44 | CCSc1nnc(NC(=O)Cc2ccccc2OC)s1 | 31.6 µM [rising, single point]
45 | CCC(Sc1nc2ccccc2s1)C(=O)Nc1cc(C)on1 (configuration not stated) | 0.794 µM [falling, full curve, poor fit]
46 | Brc1ccc(-c2nn3c(-c4ccco4)nnc3s2)o1 | 20 µM [rising, partial curve, poor fit]

Copied from the list:
AC50, `CCN(CC)c1ccc(/C=N/Nc2nc(C)cc(=O)[nH]2)cc1` is entered as 12.6 µM [falling, partial curve, poor fit]
AC50, `CCNc1nc(OCC)nc(N2CCC(Cc3ccccc3)CC2)n1` is entered as 35.5 µM [rising, partial curve, poor fit]
AC50, `S=c1nc[nH]c2c1[nH]c1ccccc12` is entered as 12.6 µM [rising, partial curve]

Continuation:

Row | SMILES | AC50
47 | Cc1cc(C)n(-c2ccc(C(=O)Nc3ccccc3N3CCOCC3)cc2)n1 | 3.16 µM [falling, full curve]
48 | CCN1CCN(CC(O)COC(C)C)CC1 (configuration not stated) | 6.31 µM [falling, single point]
49 | COc1cccc(C2=NO[C@@H]3C(=O)N(Cc4ccccc4)C(=O)[C@H]23)c1OC | 10 µM [falling, partial curve]
50 | Cc1ccc(N(CC(=O)Nc2ccc(F)c(Cl)c2)S(=O)(=O)c2c(C)noc2C)cc1 | 0.0158 µM [falling, full curve, poor fit]
51 | COc1ccc(CCNC(=O)CCn2c(=O)[nH]c3cc(OC)c(OC)cc3c2=O)cc1OC | 1.26 µM [falling, partial curve]
52 | CN(C)S(=O)(=O)N(CC(=O)Nc1ccc2ccccc2c1)c1ccccc1 | 1.26 µM [falling, single point]
53 | CN1CCC/C1=C/C=C1\SC(=S)NC1=O | 14.1 µM [falling, single point]
54 | CCCCNCC(=O)Nc1sc(C)c(C)c1C(=O)OCC | 25.1 µM [falling, single point]
55 | COc1cccc(-c2cc(C(=O)Nc3cccnc3)no2)c1 | 0.158 µM [falling, full curve, poor fit]
56 | Cc1nc2ccc(S(=O)(=O)NCC(=O)N3CCOCC3)cc2s1 | 31.6 µM [rising, single point]
57 | COc1cc2c(=O)n(CC3CCCO3)c(=O)n(CC(=O)Nc3ccc(F)cc3F)c2cc1OC (configuration not stated) | 35.5 µM [falling, single point]
58 | COc1ccc2[nH]cc(C(=O)CN3CCCCC3)c2c1 | 0.00501 µM [falling, full curve, poor fit]
59 | COc1ccccc1OCc1ccc(C(=O)NCc2ccco2)o1 | 3.16 µM [rising, full curve, poor fit]
60 | NS(=O)(=O)c1ccc(N2N=C(c3ccccc3)CC2c2ccc(F)cc2)cc1 (configuration not stated) | 6.31 µM [rising, full curve]
61 | CCCCNC(=S)NNC(=O)CCn1nc(C)c(Br)c1C | 3.16 µM [rising, partial curve, poor fit]
62 | COC(=O)c1[nH]c2cccc(OC)c2c1NC(=O)CN1CCOCC1 | 0.0631 µM [rising, full curve, poor fit]
63 | CCn1cc(C(=O)OCC(=O)N(C)C2CCS(=O)(=O)C2)c(=O)c2ccc(C)nc21 (configuration not stated) | 1 µM [falling, partial curve, poor fit]
64 | Cc1cc(C)c(Nc2cc(S(=O)(=O)O)c(N)c3c2C(=O)c2ccccc2C3=O)c(C)c1 | 35.5 µM [falling, single point]
65 | O=C(NCc1cccnc1)c1ccc(CN2CCc3ccccc3C2)cc1 | 0.0224 µM [falling, full curve, poor fit]
66 | COc1ccc(N2CCN(C(c3cccs3)C(C)NC(=O)c3ccco3)CC2)cc1 (configuration not stated) | 1 µM [falling, full curve]
67 | CCOc1cc(CO)c(Br)cc1OCC(=O)O | 31.6 µM [falling, single point]

Entries listed so far that contain a COOH group, in the order listed:
Row | SMILES | AC50
30 | Cc1oc(CSCC2CCCO2)cc1C(=O)O (configuration not stated) | 3.98 µM [falling, partial curve]
38 | Nc1cc2sc(-c3ccc(C(=O)O)cc3)nc2cc1Cl | 14.1 µM [rising, partial curve]
67 | CCOc1cc(CO)c(Br)cc1OCC(=O)O | 31.6 µM [falling, single point]
